These results are taken from US9062026B2, “Fused pyrimidines and substituted quinazolines as inhibitors of p97” (Cleave Biosciences, Inc., priority 2012, dated 2015).

By UniProt entry, the sequences of proteins in these tests, tags left out.
UniProt P55072, whole entry: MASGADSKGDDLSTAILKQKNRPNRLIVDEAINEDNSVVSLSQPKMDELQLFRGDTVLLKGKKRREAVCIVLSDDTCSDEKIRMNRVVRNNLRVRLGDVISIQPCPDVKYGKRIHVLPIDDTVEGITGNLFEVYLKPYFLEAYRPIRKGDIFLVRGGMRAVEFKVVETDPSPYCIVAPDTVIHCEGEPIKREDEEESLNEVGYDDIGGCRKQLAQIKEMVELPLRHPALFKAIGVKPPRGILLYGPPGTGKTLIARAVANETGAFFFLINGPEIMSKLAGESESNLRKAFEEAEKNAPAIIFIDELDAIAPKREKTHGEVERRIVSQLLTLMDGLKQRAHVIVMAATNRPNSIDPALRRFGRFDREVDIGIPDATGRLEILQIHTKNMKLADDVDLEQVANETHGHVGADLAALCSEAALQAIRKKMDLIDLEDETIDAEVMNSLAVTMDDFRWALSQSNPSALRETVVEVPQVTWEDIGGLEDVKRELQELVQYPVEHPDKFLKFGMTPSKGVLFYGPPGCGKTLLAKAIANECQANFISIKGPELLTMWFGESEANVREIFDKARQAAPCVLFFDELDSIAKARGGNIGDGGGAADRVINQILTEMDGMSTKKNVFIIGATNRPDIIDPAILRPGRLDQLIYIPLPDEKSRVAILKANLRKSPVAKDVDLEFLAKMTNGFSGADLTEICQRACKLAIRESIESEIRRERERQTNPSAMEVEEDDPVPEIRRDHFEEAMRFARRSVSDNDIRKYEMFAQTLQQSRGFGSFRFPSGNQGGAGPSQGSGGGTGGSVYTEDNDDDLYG

Broadly, the IC50 is the concentration at which inhibition is half-maximal.

For the test, the target named is p97 (Homo sapiens (Human), UniProt P55072). As to the kind of experiment: P97 ATPase biochem assay (ADP Glo). The conditions noted are these: read-out: p97 IC50. For orientation: In ADP-Glo the light output rises with the ADP produced.

The structures appear in SMILES notation. The structures given here were assigned with low confidence; some may be wrong. Some results are limits rather than exact numbers.

Consider `COCCOc1cccc2c(NCc3ccccc3)nc(-n3c(CNC(C)=O)cc4ccccc43)nc12`, for which the IC50 was less than 300 nM.
